Chains of the proteins cited; added tags and fusions are not shown. Lines headed by an entry give the natural chain unless they say otherwise; changes in a name come on top.
UniProt Q03164, whole entry: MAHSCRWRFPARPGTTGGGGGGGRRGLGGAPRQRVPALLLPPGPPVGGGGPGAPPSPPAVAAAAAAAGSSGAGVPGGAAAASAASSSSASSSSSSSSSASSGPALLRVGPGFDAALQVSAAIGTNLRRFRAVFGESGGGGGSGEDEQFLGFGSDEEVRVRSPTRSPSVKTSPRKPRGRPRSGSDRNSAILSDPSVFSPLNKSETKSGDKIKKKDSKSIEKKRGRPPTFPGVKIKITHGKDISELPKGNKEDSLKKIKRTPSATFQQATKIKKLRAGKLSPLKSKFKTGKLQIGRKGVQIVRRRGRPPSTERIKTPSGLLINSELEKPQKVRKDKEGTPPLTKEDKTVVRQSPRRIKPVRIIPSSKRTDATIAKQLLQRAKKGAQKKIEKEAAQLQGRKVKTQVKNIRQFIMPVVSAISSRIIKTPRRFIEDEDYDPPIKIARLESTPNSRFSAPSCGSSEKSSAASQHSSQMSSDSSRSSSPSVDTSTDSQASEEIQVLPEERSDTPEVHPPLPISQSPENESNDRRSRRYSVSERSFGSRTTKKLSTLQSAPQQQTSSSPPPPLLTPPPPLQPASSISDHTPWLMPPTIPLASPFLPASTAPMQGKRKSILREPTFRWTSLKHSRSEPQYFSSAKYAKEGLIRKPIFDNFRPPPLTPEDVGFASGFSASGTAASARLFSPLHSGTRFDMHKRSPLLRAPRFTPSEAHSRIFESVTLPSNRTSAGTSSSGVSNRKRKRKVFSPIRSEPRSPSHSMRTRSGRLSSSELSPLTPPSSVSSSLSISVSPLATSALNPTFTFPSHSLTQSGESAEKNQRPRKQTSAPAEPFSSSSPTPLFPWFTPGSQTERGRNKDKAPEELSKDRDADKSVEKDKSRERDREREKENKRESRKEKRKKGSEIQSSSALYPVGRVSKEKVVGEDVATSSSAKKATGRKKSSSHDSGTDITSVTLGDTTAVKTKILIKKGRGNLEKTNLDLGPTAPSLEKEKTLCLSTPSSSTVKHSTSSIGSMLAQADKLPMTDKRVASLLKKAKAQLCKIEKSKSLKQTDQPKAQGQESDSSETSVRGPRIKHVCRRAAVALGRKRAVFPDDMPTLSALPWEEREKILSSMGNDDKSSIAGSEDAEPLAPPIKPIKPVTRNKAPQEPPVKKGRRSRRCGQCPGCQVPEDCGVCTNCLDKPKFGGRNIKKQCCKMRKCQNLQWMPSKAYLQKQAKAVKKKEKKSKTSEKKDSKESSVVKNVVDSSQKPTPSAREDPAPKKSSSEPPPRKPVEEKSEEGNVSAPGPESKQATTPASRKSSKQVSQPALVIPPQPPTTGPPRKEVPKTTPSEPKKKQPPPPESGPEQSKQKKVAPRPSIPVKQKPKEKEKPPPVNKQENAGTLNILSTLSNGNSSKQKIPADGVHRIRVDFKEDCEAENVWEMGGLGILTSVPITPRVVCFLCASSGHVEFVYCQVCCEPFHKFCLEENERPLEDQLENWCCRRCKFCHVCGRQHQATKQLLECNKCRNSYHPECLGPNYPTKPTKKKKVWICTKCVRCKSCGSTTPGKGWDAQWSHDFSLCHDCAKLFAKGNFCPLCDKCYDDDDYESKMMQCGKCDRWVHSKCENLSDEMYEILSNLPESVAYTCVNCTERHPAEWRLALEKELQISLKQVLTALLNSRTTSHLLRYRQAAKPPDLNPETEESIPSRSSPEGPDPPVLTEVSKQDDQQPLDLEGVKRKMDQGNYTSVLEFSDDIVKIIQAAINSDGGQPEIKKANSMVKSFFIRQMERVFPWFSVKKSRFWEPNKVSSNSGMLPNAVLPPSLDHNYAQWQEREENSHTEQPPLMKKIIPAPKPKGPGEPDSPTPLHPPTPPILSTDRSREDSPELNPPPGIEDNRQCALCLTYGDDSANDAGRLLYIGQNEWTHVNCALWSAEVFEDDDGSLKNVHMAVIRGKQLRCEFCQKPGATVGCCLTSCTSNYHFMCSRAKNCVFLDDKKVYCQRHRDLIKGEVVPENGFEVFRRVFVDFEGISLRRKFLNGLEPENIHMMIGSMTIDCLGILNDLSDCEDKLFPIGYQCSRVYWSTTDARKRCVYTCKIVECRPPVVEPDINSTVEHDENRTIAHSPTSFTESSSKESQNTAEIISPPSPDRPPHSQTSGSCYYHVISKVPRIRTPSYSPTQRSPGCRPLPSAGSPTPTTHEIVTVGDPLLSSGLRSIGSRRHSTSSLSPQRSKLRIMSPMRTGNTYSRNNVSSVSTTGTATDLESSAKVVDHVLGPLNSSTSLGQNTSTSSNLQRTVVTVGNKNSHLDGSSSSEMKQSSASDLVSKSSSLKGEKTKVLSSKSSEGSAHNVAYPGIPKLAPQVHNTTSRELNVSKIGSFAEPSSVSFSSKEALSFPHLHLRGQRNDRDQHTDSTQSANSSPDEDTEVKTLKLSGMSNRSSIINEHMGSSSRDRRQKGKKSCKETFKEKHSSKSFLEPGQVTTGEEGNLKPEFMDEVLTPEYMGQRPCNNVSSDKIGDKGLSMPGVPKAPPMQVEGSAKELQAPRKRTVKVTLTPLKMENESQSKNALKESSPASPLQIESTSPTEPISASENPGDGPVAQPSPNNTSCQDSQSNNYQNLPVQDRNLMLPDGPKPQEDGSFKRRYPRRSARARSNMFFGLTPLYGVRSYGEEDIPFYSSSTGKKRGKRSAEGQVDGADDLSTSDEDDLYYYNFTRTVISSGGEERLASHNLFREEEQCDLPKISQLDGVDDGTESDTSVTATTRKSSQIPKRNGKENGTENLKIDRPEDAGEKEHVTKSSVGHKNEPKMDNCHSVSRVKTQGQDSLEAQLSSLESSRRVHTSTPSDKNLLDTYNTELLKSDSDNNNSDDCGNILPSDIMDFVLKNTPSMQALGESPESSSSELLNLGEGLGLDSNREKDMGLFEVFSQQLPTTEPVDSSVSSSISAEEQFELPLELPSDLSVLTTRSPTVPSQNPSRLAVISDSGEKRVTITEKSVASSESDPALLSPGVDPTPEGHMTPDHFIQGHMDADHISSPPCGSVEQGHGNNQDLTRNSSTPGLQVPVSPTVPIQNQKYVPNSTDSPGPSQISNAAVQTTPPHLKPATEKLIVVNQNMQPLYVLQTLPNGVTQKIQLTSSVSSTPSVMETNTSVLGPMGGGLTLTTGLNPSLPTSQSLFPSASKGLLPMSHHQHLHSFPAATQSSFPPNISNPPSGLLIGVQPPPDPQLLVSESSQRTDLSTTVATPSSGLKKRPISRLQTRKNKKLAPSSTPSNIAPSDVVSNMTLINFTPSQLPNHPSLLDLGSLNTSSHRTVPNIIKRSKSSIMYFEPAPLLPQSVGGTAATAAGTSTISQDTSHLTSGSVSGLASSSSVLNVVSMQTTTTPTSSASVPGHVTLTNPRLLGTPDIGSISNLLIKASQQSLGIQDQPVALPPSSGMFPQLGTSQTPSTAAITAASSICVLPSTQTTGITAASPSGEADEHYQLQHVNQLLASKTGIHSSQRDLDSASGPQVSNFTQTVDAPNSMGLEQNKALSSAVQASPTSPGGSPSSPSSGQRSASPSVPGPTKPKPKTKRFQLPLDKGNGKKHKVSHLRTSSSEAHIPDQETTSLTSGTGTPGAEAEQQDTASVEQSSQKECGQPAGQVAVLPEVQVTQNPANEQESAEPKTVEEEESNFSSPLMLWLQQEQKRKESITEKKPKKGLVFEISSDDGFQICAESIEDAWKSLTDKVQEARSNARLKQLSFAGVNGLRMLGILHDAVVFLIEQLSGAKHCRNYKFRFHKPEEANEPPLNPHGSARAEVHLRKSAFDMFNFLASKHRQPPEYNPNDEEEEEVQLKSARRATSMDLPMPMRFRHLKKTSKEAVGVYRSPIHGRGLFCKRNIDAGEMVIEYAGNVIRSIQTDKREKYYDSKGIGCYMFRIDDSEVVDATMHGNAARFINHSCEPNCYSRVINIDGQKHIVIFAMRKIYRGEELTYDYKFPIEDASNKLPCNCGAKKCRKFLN
UniProt Q03518, whole entry: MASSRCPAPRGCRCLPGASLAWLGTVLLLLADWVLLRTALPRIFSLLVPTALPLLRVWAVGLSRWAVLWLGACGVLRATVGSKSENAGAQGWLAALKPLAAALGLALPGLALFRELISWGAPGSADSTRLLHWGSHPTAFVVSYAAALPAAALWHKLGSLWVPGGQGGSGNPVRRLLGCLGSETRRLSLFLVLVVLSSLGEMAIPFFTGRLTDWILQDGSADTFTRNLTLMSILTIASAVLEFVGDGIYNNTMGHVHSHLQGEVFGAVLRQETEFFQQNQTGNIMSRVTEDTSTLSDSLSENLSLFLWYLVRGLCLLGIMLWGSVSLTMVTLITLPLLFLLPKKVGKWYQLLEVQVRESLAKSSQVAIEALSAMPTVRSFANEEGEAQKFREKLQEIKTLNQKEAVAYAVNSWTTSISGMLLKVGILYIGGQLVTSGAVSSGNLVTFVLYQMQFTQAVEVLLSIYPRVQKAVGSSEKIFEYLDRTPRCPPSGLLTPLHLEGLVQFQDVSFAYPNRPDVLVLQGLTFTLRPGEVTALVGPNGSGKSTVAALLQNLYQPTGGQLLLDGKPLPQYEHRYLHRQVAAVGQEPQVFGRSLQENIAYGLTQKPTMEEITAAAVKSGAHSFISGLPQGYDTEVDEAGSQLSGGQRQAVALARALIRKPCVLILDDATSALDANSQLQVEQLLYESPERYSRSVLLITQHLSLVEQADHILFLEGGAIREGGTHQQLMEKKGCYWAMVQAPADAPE
UniProt Q12974: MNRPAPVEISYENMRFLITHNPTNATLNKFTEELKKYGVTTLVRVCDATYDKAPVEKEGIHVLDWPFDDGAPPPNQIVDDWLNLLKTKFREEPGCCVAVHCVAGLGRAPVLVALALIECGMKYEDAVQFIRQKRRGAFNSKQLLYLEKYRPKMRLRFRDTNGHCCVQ
UniProt Q03393: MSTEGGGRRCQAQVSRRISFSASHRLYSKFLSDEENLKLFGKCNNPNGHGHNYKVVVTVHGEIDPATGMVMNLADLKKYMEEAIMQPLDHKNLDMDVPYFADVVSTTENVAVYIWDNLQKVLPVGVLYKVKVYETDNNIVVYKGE
UniProt P80217: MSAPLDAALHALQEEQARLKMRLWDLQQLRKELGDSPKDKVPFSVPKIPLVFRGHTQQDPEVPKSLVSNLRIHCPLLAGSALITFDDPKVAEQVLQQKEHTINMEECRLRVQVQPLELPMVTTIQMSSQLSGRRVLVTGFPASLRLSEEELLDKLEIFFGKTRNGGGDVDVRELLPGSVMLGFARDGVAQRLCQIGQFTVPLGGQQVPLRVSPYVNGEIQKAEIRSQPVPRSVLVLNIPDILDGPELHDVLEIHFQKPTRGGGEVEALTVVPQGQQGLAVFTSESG
UniProt Q00577: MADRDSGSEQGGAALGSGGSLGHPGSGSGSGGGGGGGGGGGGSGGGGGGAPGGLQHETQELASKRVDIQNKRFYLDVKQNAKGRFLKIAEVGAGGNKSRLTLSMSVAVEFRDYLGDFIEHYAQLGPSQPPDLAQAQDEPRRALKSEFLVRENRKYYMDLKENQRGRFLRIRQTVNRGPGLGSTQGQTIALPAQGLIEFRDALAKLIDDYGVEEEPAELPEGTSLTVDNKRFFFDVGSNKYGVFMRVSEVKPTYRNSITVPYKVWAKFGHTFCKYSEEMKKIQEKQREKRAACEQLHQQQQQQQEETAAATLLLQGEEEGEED
UniProt Q08257: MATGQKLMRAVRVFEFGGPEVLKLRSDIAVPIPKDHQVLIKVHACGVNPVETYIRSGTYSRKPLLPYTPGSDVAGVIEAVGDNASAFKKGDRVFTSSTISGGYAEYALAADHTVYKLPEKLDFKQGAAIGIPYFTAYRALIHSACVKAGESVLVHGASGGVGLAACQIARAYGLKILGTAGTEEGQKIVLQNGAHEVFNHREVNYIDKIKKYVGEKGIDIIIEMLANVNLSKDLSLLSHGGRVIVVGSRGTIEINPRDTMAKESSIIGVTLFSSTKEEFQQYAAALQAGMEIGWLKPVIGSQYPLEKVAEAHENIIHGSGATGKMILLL
UniProt Q12980: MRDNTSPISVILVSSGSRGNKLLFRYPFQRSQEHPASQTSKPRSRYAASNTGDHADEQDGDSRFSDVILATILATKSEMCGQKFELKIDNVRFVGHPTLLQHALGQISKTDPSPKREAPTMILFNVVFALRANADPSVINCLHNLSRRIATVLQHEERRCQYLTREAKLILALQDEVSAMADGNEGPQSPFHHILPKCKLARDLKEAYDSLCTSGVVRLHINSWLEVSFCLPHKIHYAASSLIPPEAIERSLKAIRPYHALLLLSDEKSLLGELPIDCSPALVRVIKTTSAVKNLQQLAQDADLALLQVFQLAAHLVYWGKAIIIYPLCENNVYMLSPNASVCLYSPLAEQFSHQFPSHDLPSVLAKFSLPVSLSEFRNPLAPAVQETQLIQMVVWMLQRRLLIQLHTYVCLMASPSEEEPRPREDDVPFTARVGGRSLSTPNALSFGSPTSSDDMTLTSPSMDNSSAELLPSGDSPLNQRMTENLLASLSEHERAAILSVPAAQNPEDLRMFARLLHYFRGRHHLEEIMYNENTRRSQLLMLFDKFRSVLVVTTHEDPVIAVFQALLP

Some of the results follow. The data scatter; read single values as rough.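 Tm was set to 64 °C where no melting was found, and many curves are irregular.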
What follows are targets tested with CCc1cnccc1C(=O)Nc1cc2c(cc1F)NC(=O)CC2 (assay: melting temperature shift (DMSO Tm minus MBE1-treated Tm) in cellular thermal proteome profiling; higher = less thermal stabilization by MBE1 (negative = stabilized by MBE1)). Details: A375; MBE1 concentration: 100 nM.
Target TIAL1 (UniProt Q01085) has a melting temperature shift of -0.977 °C.
In the case of LGALS3BP (UniProt Q08380), the melting temperature shift is reported as -1.57 °C.
Target RBBP4 (UniProt Q09028) has a melting temperature shift of -0.495 °C.
UniProt P78357 gave a melting temperature shift of -1.07 °C.
UniProt Q03164 gave a melting temperature shift of -0.301 °C.
Target TAP1 (UniProt Q03518) has a melting temperature shift of 0.165 °C.
PTP4A2 (UniProt Q12974) gave a melting temperature shift of -2.06 °C.
Target DST (UniProt Q03001) has a melting temperature shift of 6.94 °C.
SLC25A11 (UniProt Q02978) showed a melting temperature shift of -2.14 °C.
MRPS35 (UniProt P82673) gave a melting temperature shift of 0.904 °C.
PTS (UniProt Q03393) showed a melting temperature shift of -1.37 °C.
UniProt Q12756 gave a melting temperature shift of -2.28 °C.
Work on TLE4 (UniProt Q04727) yielded a melting temperature shift of -1.23 °C.
For IFI35 (UniProt P80217), the melting temperature shift was -1.55 °C.
Target MRPS22 (UniProt P82650) has a melting temperature shift of -0.391 °C.
For SRSF4 (UniProt Q08170), the melting temperature shift was 0.983 °C.
For UniProt Q12955, the melting temperature shift was -0.809 °C.
SF3A3 (UniProt Q12874) showed a melting temperature shift of -0.315 °C.
Work on PURA (UniProt Q00577) yielded a melting temperature shift of -0.843 °C.
CAP1 (UniProt Q01518) was tested, and the melting temperature shift was -0.302 °C.
UniProt Q05193 gave a melting temperature shift of 0.434 °C.
In the case of SCAP (UniProt Q12770), the melting temperature shift is reported as -0.221 °C.
In the case of STX4 (UniProt Q12846), the melting temperature shift is reported as 0.305 °C.
In the case of IFRD2 (UniProt Q12894), the melting temperature shift is reported as 0.0488 °C.
In the case of NEXN (UniProt Q0ZGT2), the melting temperature shift is reported as 1.76 °C.
For FOXO1 (UniProt Q12778), the melting temperature shift was -1.38 °C.
NCBP1 (UniProt Q09161) showed a melting temperature shift of 1.25 °C.
CRYZ (UniProt Q08257) was tested, and the melting temperature shift was -0.719 °C.
Target BLOC1S1 (UniProt P78537) has a melting temperature shift of -1.79 °C.
CCT2 (UniProt P78371) showed a melting temperature shift of -1.04 °C.
Work on UniProt Q12840 yielded a melting temperature shift of 0.44 °C.
Work on NTHL1 (UniProt P78549) yielded a melting temperature shift of -1.27 °C.
UniProt Q08AE8 was tested, and the melting temperature shift was -1.95 °C.
EXOSC9 (UniProt Q06265) showed a melting temperature shift of 0.348 °C.
UniProt P83369 showed a melting temperature shift of -1.48 °C.
Work on NPRL3 (UniProt Q12980) yielded a melting temperature shift of 0.673 °C.
GBE1 (UniProt Q04446) gave a melting temperature shift of 0.202 °C.
In the case of RELB (UniProt Q01201), the melting temperature shift is reported as -0.353 °C.

Same assay, conditions: A375; MBE1 concentration: 1 uM
TIAL1 (UniProt Q01085) gave a melting temperature shift of -0.0916 °C.
LGALS3BP (UniProt Q08380) was tested, and the melting temperature shift was 1.04 °C.
RBBP4 (UniProt Q09028) gave a melting temperature shift of 12.4 °C.
For UniProt P78357, the melting temperature shift was 0.202 °C.
UniProt Q03164 showed a melting temperature shift of -0.455 °C.
For TAP1 (UniProt Q03518), the melting temperature shift was 0.621 °C.
Target PTP4A2 (UniProt Q12974) has a melting temperature shift of 0.503 °C.
DST (UniProt Q03001) gave a melting temperature shift of 7.17 °C.
SLC25A11 (UniProt Q02978) gave a melting temperature shift of -2.38 °C.
For MRPS35 (UniProt P82673), the melting temperature shift was 0 °C.
With PTS (UniProt Q03393) the melting temperature shift was -0.871 °C.
In the case of UniProt Q12756, the melting temperature shift is reported as 0.55 °C.
TLE4 (UniProt Q04727) gave a melting temperature shift of 0.263 °C.
Target IFI35 (UniProt P80217) has a melting temperature shift of 0.557 °C.
MRPS22 (UniProt P82650) gave a melting temperature shift of 0.167 °C.
SRSF4 (UniProt Q08170) showed a melting temperature shift of 0.0122 °C.
UniProt Q12955 gave a melting temperature shift of 0.348 °C.
SF3A3 (UniProt Q12874) showed a melting temperature shift of -0.367 °C.
PURA (UniProt Q00577) was tested, and the melting temperature shift was -2.67 °C.
In the case of CAP1 (UniProt Q01518), the melting temperature shift is reported as -0.248 °C.
UniProt Q05193 showed a melting temperature shift of 0.385 °C.
SCAP (UniProt Q12770) showed a melting temperature shift of -0.915 °C.
Target STX4 (UniProt Q12846) has a melting temperature shift of 0.745 °C.
IFRD2 (UniProt Q12894) was tested, and the melting temperature shift was 1.03 °C.
NEXN (UniProt Q0ZGT2) was tested, and the melting temperature shift was 0.586 °C.
FOXO1 (UniProt Q12778) was tested, and the melting temperature shift was -2.36 °C.
Target NCBP1 (UniProt Q09161) has a melting temperature shift of 0.226 °C.
CRYZ (UniProt Q08257) was tested, and the melting temperature shift was 0.614 °C.
For BLOC1S1 (UniProt P78537), the melting temperature shift was 0.256 °C.
For CCT2 (UniProt P78371), the melting temperature shift was -0.134 °C.
UniProt Q12840 was tested, and the melting temperature shift was 0.305 °C.
NTHL1 (UniProt P78549) gave a melting temperature shift of 0.154 °C.
Target UniProt Q08AE8 has a melting temperature shift of -0.968 °C.
For EXOSC9 (UniProt Q06265), the melting temperature shift was -0.418 °C.
For UniProt P83369, the melting temperature shift was -0.711 °C.
NPRL3 (UniProt Q12980) showed a melting temperature shift of -1.57 °C.
In the case of GBE1 (UniProt Q04446), the melting temperature shift is reported as -0.189 °C.
For RELB (UniProt Q01201), the melting temperature shift was -0.146 °C.
